The values below come from PubChem BioAssay AID2685 (National Center for Advancing Translational Sciences (NCATS), 2010).

This test can be described thus: qHTS Assay for Lipid Storage Modulators in Drosophila S3 Cells.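 As to cell number change: cells counted by Cell Tracker Red CMTPX staining in the red channel.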 Conditions: BODIPY lipid droplet fluorescence, 18-24 h; for cell number change: measured here: cell count max response, cells fed with added oleic acid. The method in brief:
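Drosophila S3 cells got compounds at several concentrations plus oleic acid (400 uM solution). Laser-scanning cytometry with 488 nm excitation read lipid droplets at 500-530 nm and cells at 575-640 nm. Percent activity was relative to 20 uM Triacsin C.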
(In general: qHTS replaces the single test concentration by a dilution series.)

Setting [1] is: measured here: cell number channel AC50, cells fed with added oleic acid.
[2] abbreviates: measured here: lipid fluorescence (Fed channel) AC50, cells fed with added oleic acid.

Molecules are shown by their SMILES. Several values for one entry are separate records, joined by “and”; a condition that tells them apart may be missing. Identical values can stand only once. Some of the results follow. The main result of the screen is listed elsewhere. These columns were measured beside it and carry no call. The list favours compounds with an active or inconclusive main result. The note in brackets gives the kind of curve behind each potency; many fits are weak.

Usually AC50 stands for the midpoint of the concentration-response curve, whichever way the signal moves. A low value points to greater potency.

With `CCN(CC)c1ccc(NC(=O)COc2ccccc2C#N)cc1S(=O)(=O)Nc1ccc(OC)cc1`, the cell number change was found to be 33.3%. In addition, the AC50 under setting [1] was 29.1 µM [rising, single point]. Besides, the AC50 under setting [2] was 0.103 µM [rising, full curve, poor fit].
Turning to `COP(C)(=O)c1c(C)nn(-c2ccccc2)c1C` (stereo unspecified), the cell number change was -146%.
In the case of `Oc1ccc(CN2CCCc3ccccc32)c2cccnc12`, the AC50 reads like this: under setting [1], 3.66 µM [falling, partial curve, poor fit]; under setting [2], 3.26 µM [falling, partial curve].
For the compound `O=C(COc1ccccc1)N/N=C/c1ccc([N+](=O)[O-])o1`, the cell number change is -5.62%. Moreover, the AC50 under setting [2] is 29.1 µM [falling, single point].
As for `CN(CCO)Cc1csc2ccc(Br)cc12`, the cell number change is -26%. Besides, the AC50 under setting [2] is 29.1 µM [falling, single point].
In the case of `CCOCCCNC(=O)C(c1ccc(C)cc1)N(Cc1cccs1)C(=O)c1ccccn1` (stereo unspecified), the cell number change is -94.7%. The AC50 under setting [1] was 29.1 µM [falling, single point].
With `CCOC(=O)C1(Cc2cccc(OC)c2)CCCN(C(=O)c2ccccc2C)C1` (stereo unspecified), the cell number change was 21.5%.
Take `N=c1ccn(Cc2ccc(Cl)cc2Cl)cc1`: the cell number change was 37.8%.
`CCCOc1ccc(C(F)(F)F)cc1NC(=O)c1cc(C)on1`: the cell number change was -8.84%. In addition, the AC50 under setting [1] was 5.17 µM [falling, partial curve]. In addition, under setting [2], the AC50 was 4.11 µM [falling, partial curve].
`COc1ccc(C2=CC(=O)C[C@H](c3ccc4c(c3)OCO4)C2)cn1`: the cell number change was -7.34%. Further, the AC50 under setting [2] was 0.291 µM [falling, partial curve, poor fit].
On to `O=C(CC12CC3CC(CC(Br)(C3)C1)C2)NC1CCCC1`, for which the cell number change is -34.7%. For the same compound, under setting [1], the AC50 was 0.0231 µM [falling, full curve, poor fit].
Take `CC(C)(C)n1nc2c(c1NC(=O)c1cccc(Cl)c1)CS(=O)(=O)C2`: the AC50 under setting [2] was 6.51 µM [falling, single point].
Regarding `CN(Cc1ccco1)C(=O)C1CCC(=O)N1Cc1ccc(F)cc1` (stereo unspecified), the cell number change was determined as 12.9%.
Take `CC(=O)c1cccc(NC(=O)CSc2nc(N3CCOCC3)nc(N3CCOCC3)n2)c1`: the cell number change came out at 6.19%.
With `CN(C)S(=O)(=O)c1ccc(Cl)c(C(=O)NNC(=O)Cn2ccc(C(F)(F)F)n2)c1`, the cell number change was -15.7%.
Take `CC(C)OC(=O)CSc1nnc(CNc2ccc(Cl)cc2)n1Cc1ccccc1`: the cell number change was -37.3%. Besides, the AC50 under setting [1] was 29.1 µM [falling, partial curve, poor fit]. The AC50 under setting [2] was 32.6 µM [falling, partial curve].
As to `CCOC(=O)c1c(NC(=O)Cn2nnc(-c3ccc(Cl)cc3)n2)sc(C)c1C`, the cell number change was -13.1%. For the same compound, the AC50 under setting [2] was 6.51 µM [rising, single point].
Turning to `Cc1cccc(NC(=O)/C=C/c2ccc3c(c2)OCO3)n1`, the cell number change stood at 9.54%. Also, the AC50 under setting [2] was 0.411 µM [rising, full curve].
Turning to `Cc1ccc(-c2noc(CN3C(C)CCCC3C)n2)cc1` (stereo unspecified), the cell number change was -31.6%. The half-maximal activity concentration (AC50) under setting [2] is 29.1 µM [falling, single point].
With `COc1ccc(CCc2nnc(CCC(=O)N(C)Cc3ccnc4ccccc34)o2)cc1`, the cell number change was -24.2%. Under setting [2], the AC50 was 20.6 µM [falling, single point].
As for `O=c1[nH]cccc1-c1nc2ccccc2n1Cc1ccccc1F`, the cell number change was determined as 12.1%. For the same compound, the AC50 under setting [1] was 4.11 µM [rising, single point]. Further, the AC50 under setting [2] is 6.51 µM [rising, partial curve, poor fit].
With `CCC(=O)NC(c1cc(Cl)c2cccnc2c1O)C1CC1` (stereo unspecified), the cell number change is 3.62% and 25.2%. For the same compound, the AC50 under setting [2] is 13 µM [rising, partial curve].
As to `O=C(O)CCc1nc(-c2ccccc2)no1`, the cell number change was -2.56%. Under setting [2], the AC50 was 6.51 µM [rising, single point].
Take `CC1=CN2C(=N)/C(=C/c3ccc([N+](=O)[O-])o3)C(=O)N=C2S1`: the AC50 under setting [2] is 13 µM [falling, partial curve].
On to `S=C1NC[C@H](CC2CCCCC2)N1CC1CCCCC1`, for which the cell number change is -30.9%. The AC50 under setting [1] is 1.46 µM [falling, partial curve]. Also, the AC50 under setting [2] was 2.91 µM [falling, partial curve].
Turning to `CC(C)(C)c1cccc(OCCCSc2ncccn2)c1`, the cell number change was -14.3%. Moreover, the AC50 under setting [2] was 0.82 µM [rising, single point].
Turning to `COc1cccc(NC(=S)N2CCc3cc(OC)c(OC)cc3C2)c1`, the cell number change is -13%. In addition, under setting [2], the AC50 was 20.6 µM [falling, single point].
As to `CCN(CCC(=O)Nc1cc(OC)cc(OC)c1)Cc1ccccc1`, the cell number change stood at 0.711%.
On to `CN(CC(=O)Nc1ccc(Cl)c(C(F)(F)F)c1)Cc1cc(=O)n2ccsc2n1`, for which the cell number change amounted to 57%. Besides, under setting [1], the AC50 is 9.2 µM [rising, partial curve, poor fit]. Moreover, under setting [2], the AC50 is 4.11 µM [rising, full curve].
As for `COc1ccc(C(C(=O)NC(C)(C)C)N(CCC(C)C)C(=O)CCC(=O)Nc2cc(C)on2)cc1` (stereo unspecified), the cell number change was -22.4%.
Consider `CCOc1ccc(N2C(=O)CC(NCc3ccc(F)cc3)C2=O)cc1` (stereo unspecified), for which the cell number change was 31.6%. In addition, the AC50 under setting [1] was 5.17 µM [rising, single point].
As to `c1ccc2c(c1)nc1n2CCS1`, the cell number change was -11.3%.
Consider `Cc1cc(C)nc(NS(=O)(=O)c2ccc(NS(=O)(=O)c3ccccc3)cc2)n1`, for which the cell number change is 12.5%. Moreover, the AC50 under setting [2] was 29.1 µM [falling, single point].
On to `Cc1cc2ccccn2c1C(=O)c1ccc([N+](=O)[O-])cc1[N+](=O)[O-]`, for which, under setting [2], the AC50 is 16.4 µM [falling, partial curve].
For `COc1ccc(C)cc1S(=O)(=O)N1CCN(S(=O)(=O)c2cc(C)ccc2OC)CC1`, the cell number change is 65.4%. Further, the AC50 under setting [1] was 7.31 µM [rising, partial curve, poor fit]. Also, the AC50 under setting [2] was 7.31 µM [rising, partial curve].
For the compound `CCc1nc2c(cnn2-c2ccc(F)cc2)c(=O)n1-c1ccc(N2CCC(C)CC2)cc1`, the cell number change came out at 2.39%. The concentration at half-maximal activity (AC50) under setting [2] was 4.61 µM [rising, single point].
Regarding `C=CCC1(O)C(=O)N2C(=C1C(=O)N1CCOCC1)c1ccccc1CC2(C)C` (stereo unspecified), the cell number change came out at 11.9%.
Regarding `COC(=O)c1[nH]c2c(c1C)C(=O)CC(c1ccc(C)cc1)C2` (stereo unspecified), the cell number change is 19%. For the same compound, under setting [1], the AC50 is 0.411 µM [rising, full curve]. For the same compound, under setting [2], the AC50 is 0.184 µM [rising, full curve, poor fit].
`CCN(CC)CCOc1nnc(-c2ccc(C)cc2)c2ccccc12`: the cell number change was 126%. Moreover, the AC50 under setting [1] is 13 µM [rising, partial curve].
With `Brc1ccccc1-c1ccccc1`, the cell number change was -7.8%.
For `OCc1c(OCc2cccc(F)c2)ccc2ccccc12`, the cell number change was -17.9%.
For `COc1ccc(CCn2c(N3CCOCC3)nc3c2c(=O)[nH]c(=O)n3C)cc1`, the cell number change turned out to be 54.3%. Moreover, under setting [1], the AC50 is 2.59 µM [rising, full curve].
Turning to `CC(C)C[C@@H](CO)N1CCN(Cc2ccc([N+](=O)[O-])cc2)CCC1=O`, the cell number change worked out at 4.19%. Moreover, the AC50 under setting [2] is 5.8 µM [rising, full curve].
For the compound `C=CCn1c(O)c(N=NC(=O)CNC(=O)c2cccs2)c2ccccc21`, the cell number change turned out to be 21%. Moreover, the AC50 under setting [2] was 6.51 µM [rising, partial curve].
`Cc1c(C(=O)Nc2ccc3c(c2)OCO3)oc2ccccc12`: the cell number change is -17.1%. Further, the AC50 under setting [2] was 0.206 µM [falling, single point].
As for `CCCC(=O)Nc1nnc(SCC(=O)Nc2nc(C)cs2)s1`, the cell number change was found to be 56.4%. Moreover, the AC50 under setting [1] is 14.6 µM [rising, partial curve, poor fit].
As for `Cc1ccccc1S(=O)(=O)N1CC(C(=O)O)=CC[C@H]1c1ccc(Cl)cc1`, the cell number change is -12.2%. The AC50 under setting [2] was 18.4 µM [rising, single point].
With `Cc1ccc(-n2nnnc2SCC(=O)c2c(N)n(C3CC3)c(=O)[nH]c2=O)cc1`, the cell number change came out at 3.35%. Besides, the AC50 under setting [2] was 9.2 µM [rising, partial curve].
On to `Cn1nc(CC(=O)NC2CCCCC2)c2ccccc2c1=O`, for which the cell number change is -22.2%.
`CC(C)COCC(O)CCC(=O)NNC(=S)Nc1ccccc1` (stereo unspecified): the cell number change is -25.4%. Moreover, the AC50 under setting [2] was 0.0291 µM [falling, full curve, poor fit].
For the compound `CN(Cc1ccccc1)C(=O)c1ccc(NC(=O)Cc2cccc(NC(=O)C3CCCN(C(=O)C4CCCCC4)C3)c2)cc1` (stereo unspecified), the cell number change was 13.3%. For the same compound, under setting [1], the AC50 was 5.17 µM [falling, single point].
Consider `O=C(O)c1ccc2c(c1)C(=O)N([C@]1(C(=O)O)CC1c1ccccc1)C2=O` (stereo partly specified), for which the cell number change is -27.5%. Besides, the AC50 under setting [2] was 0.0731 µM [falling, full curve, poor fit].
For `CCc1nnc(NS(=O)(=O)c2ccc(N/C=C\C(=O)c3ccc4ccccc4c3)cc2)s1`, the cell number change was determined as 11%. Under setting [2], the AC50 is 10.3 µM [rising, partial curve, poor fit].
In the case of `COc1ccc([N+](=O)[O-])cc1NC(=S)NC(NC(=O)Cc1ccc(OC)c(OC)c1)C(Cl)(Cl)Cl` (stereo unspecified), the cell number change is -15.8%. In addition, the AC50 under setting [1] was 0.00517 µM [falling, full curve, poor fit].
For the compound `CSc1nsc(SCC(=O)Nc2nc3ccc(C)cc3s2)n1`, the cell number change is -35.1%. For the same compound, the AC50 under setting [1] was 14.6 µM [falling, single point].
Regarding `COc1ccc(CNC(=O)c2ccccc2NC(=O)C2=CSCCO2)c(OC)c1`, the cell number change was -18.1%. The AC50 under setting [1] was 0.326 µM [falling, full curve, poor fit]. In addition, under setting [2], the AC50 is 0.58 µM [rising, single point].
For the compound `Cn1nc(-c2ccc(Cl)cc2)c2cc(C(=O)NCCN3CCOCC3)sc21`, the cell number change was found to be 6.16%. Further, the AC50 under setting [2] is 0.731 µM [rising, full curve, poor fit].
`Cc1ccc(CN(c2ccc(C(=O)NCC3CCCO3)cc2)S(C)(=O)=O)cc1` (stereo unspecified): the cell number change came out at 105%. The AC50 under setting [1] was 29.1 µM [rising, single point]. In addition, under setting [2], the AC50 is 25.9 µM [rising, single point].
Regarding `COc1ccc(-c2cc(C)no2)cc1S(=O)(=O)NCCCN1CCCCCC1`, the cell number change was -13.5%.
In the case of `O=C(Nc1ccc(Br)cn1)c1cccc(C(=O)Nc2ccc(Br)cn2)c1`, the cell number change was -38.6%. The AC50 under setting [1] is 5.17 µM [falling, full curve]. Besides, the concentration at half-maximal activity (AC50) under setting [2] was 6.51 µM [falling, full curve, poor fit].
Regarding `CCOc1cccc(NC(=O)CSc2nc(C)c3c(c2C#N)CCCC3)c1`, the cell number change was 106%. Moreover, under setting [2], the AC50 is 3.66 µM [rising, partial curve].
